# Experimental data from PubChem BioAssay AID651664 (NMMLSC, 2012).
# The campaign covered roughly 1,800 compounds. Fewer than 10 were called active.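 The calls were made as follows: active = inhibition of granule release above a set limit; inactive = the rest.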 Some of the results follow.
# Test: inhibitors of lytic granule exocytosis, flow cytometry, TALL-104 cells, validation set (AID 651664)
# Settings: TALL-104 LAMP-1 externalization, at 15.2 µM, stronger effect = higher value, stimulated with thapsigargin and PMA
row,SMILES,inhibition
1,O=C(/C=N/O)Nc1ccc(F)cc1,inactive: -2.8%
2,CCOC(=O)C1CCN(C(=O)COc2cc(C)c(Br)cc2C)CC1,inactive: 0.2%
3,O=C(O)c1cc(NCc2ccc(F)cc2)ccc1N1CCOCC1,inactive: -4.1%
4,CCOC(=O)/C(=C\c1cccnc1)C(=O)c1cc(C(C)=O)c(Nc2ccccc2)s1,inactive: -1.3%
5,CCCn1c2c(c(O)c(C(=O)Nc3ncccc3O)c1=O)CCCC2,inactive: -0.4%
6,NC(=S)N/N=C/c1ccc(-c2cccc([N+](=O)[O-])c2)o1,inactive: 1.9%
7,COC(=O)C1=C(N)Oc2cc(C)n(Cc3cccnc3)c(=O)c2C1c1ccc(OC)c(OC)c1OC (centres undefined),inactive: -0.4%
8,O=C(CSc1nc2ccccc2o1)NC(=O)NCc1ccccc1,inactive: -3.4%
9,Cc1cc(=O)oc(C)c1C(=O)NCCc1ccccc1,inactive: -4.7%
10,Cc1cc(NC(=O)C2C3C(=O)N(Cc4ccc(Cl)cc4)C(C(=O)NC4CCCCC4)C34C=CC2(C)O4)no1 (centres undefined),inactive: 0.3%
11,COc1cccc(CNC(=O)c2cc3oc4ccccc4c3n2C)c1OC,inactive: -1.6%
12,COc1ccc(C(=O)/C=C/Nc2c(C)n(C)n(-c3ccccc3)c2=O)cc1OC,inactive: -1.5%
13,COC(=O)c1ccc(Oc2nc(Nc3ccc(F)cc3)nc(N3CCCC3)n2)cc1,inactive: 0.5%
14,COc1cccc(NC(=O)CNC(C)CCC(C)C)c1 (centres undefined),inactive: 1.5%
15,CC1(C)CC(=O)C2=C(C1)Oc1ncn3nc(-c4cccnc4)nc3c1C2c1ccccc1 (centres undefined),inactive: -0.9%
16,CCOC(=O)Nc1ccc2c(c1)N(C(=O)CCN1CCN(CCO)CC1)c1ccccc1S2,inactive: -0.6%
17,CCCCc1nnc(NC(=O)CC(=O)Nc2ccccc2C(=O)O)s1,inactive: 4.3%
18,CC(C)CCn1c(Oc2ccc(Cl)cc2)nc2c1c(=O)n(C)c(=O)n2C,inactive: -1.7%
19,N#Cc1nc(-c2ccco2)oc1NCCc1ccccc1,inactive: 0.9%
20,CCOC(=O)c1c2ccc(OCC(=O)N/N=C/c3ccc(C)cc3)cc2n2ccccc12,inactive: 1.1%
21,O=C(Cc1ccccc1)NC(NCCc1ccccc1)C(Cl)(Cl)Cl (centres undefined),inactive: 5.8%
22,CCOC(=O)c1c(C)nc2ccc(C)cn12,inactive: -0.1%
23,CCn1c(SCC(N)=O)nc2sc3c(c2c1=O)CCCC3,inactive: 6.4%
24,CCCN1C(=O)SC(CC(=O)Nc2ccccc2C)C1=O (centres undefined),inactive: -2.2%
25,Cc1nc2scc(-c3ccccc3)c2c(=O)n1/N=C/c1ccco1,inactive: -0.2%

# An excerpt from above in order of formula weight, largest number first.
row,SMILES,inhibition
4,CCOC(=O)/C(=C\c1cccnc1)C(=O)c1cc(C(C)=O)c(Nc2ccccc2)s1,inactive: -1.3%
21,O=C(Cc1ccccc1)NC(NCCc1ccccc1)C(Cl)(Cl)Cl (centres undefined),inactive: 5.8%
25,Cc1nc2scc(-c3ccccc3)c2c(=O)n1/N=C/c1ccco1,inactive: -0.2%
23,CCn1c(SCC(N)=O)nc2sc3c(c2c1=O)CCCC3,inactive: 6.4%
9,Cc1cc(=O)oc(C)c1C(=O)NCCc1ccccc1,inactive: -4.7%

# (next part)

row,SMILES,inhibition
1,O=C(Nc1ccc(-c2nnc(-c3ccccc3)o2)cc1)c1ccc(Br)o1,inactive: -0.8%
2,CCOc1ccc(N2C(=O)CN=C2Nc2ccccc2Cl)cc1,inactive: -1.6%
3,S=C(NCc1ccccn1)Nc1ccc(Cl)cc1,inactive: 0.7%
4,CCOc1ccc(C(C)=O)cc1CC(C(N)=O)C(N)=O,inactive: 2.9%
5,Cc1ccc2nc(Nc3nc(-c4ccccc4)cc(=O)[nH]3)nc(C)c2c1,inactive: 0.7%
6,Cc1ccc(-n2ncc3c(NCc4ccccc4)ncnc32)cc1,inactive: -1.8%
7,CCOc1ccc(-c2nc(N)ncc2Oc2cccc(OC)c2)c(O)c1,inactive: 2.1%
8,Cc1cc(OCC(=O)Nn2cnnc2)c(C)cc1Br,inactive: -1.3%
9,Cc1ccc(NC(=O)CSc2nccn2Cc2ccccc2)cc1C,inactive: 0.1%
10,O=C(CCn1cccc1)NCc1ccccc1,inactive: -1.5%
11,O=C(c1ccccc1)c1nn(-c2cccc(Cl)c2)c2nc(-c3ccccc3)cc(=O)n12,inactive: 2.8%
12,N#CC(C(=O)C12CC3CC(CC(C3)C1)C2)c1nc2ccccc2[nH]1 (centres undefined),inactive: -4.7%
13,COc1cc(C)nc(OCCNC(=O)COc2ccc(Cl)cc2C)n1,inactive: -0.8%
14,O=C(Nc1cccc(-c2nnc(-c3ccccc3)o2)c1)c1ccco1,inactive: 6.9%
15,COc1ccc(-c2noc(Cc3cccs3)n2)cc1,inactive: 0.2%
16,COc1ccccc1-c1n[nH]c2c1[C@H](C)CC[C@H]2C(C)C,inactive: 0.1%
17,CCCn1c(SCC(=O)NC2CCCC(C)C2C)n[nH]c1=O (centres undefined),inactive: -1%
18,N#Cc1cn(-c2ccccc2)nc1C(=O)c1ccccc1,inactive: 2.8%
19,O=C(CCN1CCc2ccccc21)c1ccc2c(c1)OCCO2,inactive: 2.5%
20,CC1CCN(c2ccccc2NC(=S)NC(=O)c2ccco2)CC1,inactive: -1.7%
21,O=C(NCC1CCN(c2ccc(S(=O)(=O)N3CCOCC3)cc2)CC1)c1ccc(Cl)cc1,inactive: -2.9%
22,Oc1ccccc1Oc1ncc(Br)c(N2CCOCC2)n1,inactive: 1.2%
23,Cc1ccc(C)c(S(=O)(=O)Nc2ccc(S(=O)(=O)Nc3onc(C)c3C)cc2)c1,inactive: 0.4%
24,Oc1ccccc1N=Nc1nc(-c2ccccc2)c(-c2ccccc2)[nH]1,inactive: -2.4%
25,O=c1[nH]n(-c2ncnc3c2cnn3-c2ccccc2)c(=O)c2ccccc12,inactive: -0.6%

row,SMILES,inhibition
1,CCC(=O)c1ccc(N2CCN(C(=O)COc3ccc(F)cc3)CC2)c(F)c1,inactive: -4.4%
2,COc1ccc(OC)c2c1CCC2=O,inactive: 1.5%
3,COC(=O)COc1ccc2c(-c3cccc([N+](=O)[O-])c3)cc(=O)oc2c1,inactive: 0%
4,c1ccc(CN2CCN(c3ncnc4c3[nH]c3ccccc34)CC2)cc1,inactive: -1.5%
5,Cc1ccc(C(=O)/C=C2\NCC(C)NC2=O)cc1 (centres undefined),inactive: -1.4%
6,NC(=O)NC(=O)CSc1nc(-c2ccccc2)c(-c2ccccc2)n1CC1CCCO1 (centres undefined),inactive: 3.8%
7,COC(=O)c1cc2ccc(OC)c(OC)c2c(=O)s1,inactive: 0.9%
8,Cc1[nH]c2ccc(-c3nnc(SCC(=O)NCc4ccco4)n3Cc3ccccc3)cc2c1C,inactive: -1.9%
9,Cc1ccc(-n2ncc3c(=O)n(CC#N)cnc32)cc1C,inactive: 2.4%
10,CCN(Cc1ccccc1)C(c1ccc(C)cc1)c1nnnn1C(C)(C)CC (centres undefined),inactive: -2.8%
11,COC(=O)c1ccc(C(=S)N2CCOCC2)cc1,inactive: -1.3%
12,COc1ccc(S(=O)(=O)Nc2nc(C(F)(F)F)cs2)cc1,inactive: -0.5%
13,O=C(CSc1nc2c(c(C(F)(F)F)n1)CCc1ccccc1-2)NCc1ccccc1,inactive: -1%
14,Nc1cc2nsnc2cc1Br,inactive: -1.1%
15,COc1ccccc1CN(Cc1cc2c(C)ccc(C)c2[nH]c1=O)Cc1nnnn1Cc1ccco1,inactive: -1.3%
16,Cc1cccc(CC(Cc2nc3ccccc3[nH]2)c2nc3ccccc3[nH]2)c1 (centres undefined),active: 94.4%
17,CCc1nc(NCCCN2CCOCC2)c2oc3ccccc3c2n1,inactive: -0.8%
18,COc1ccc(NC(=O)c2ccc(-n3nc(C)cc3C)cc2)cc1OC,inactive: -1.2%
19,O=C(CN1CCN(c2ncccn2)CC1)NCc1ccccc1,inactive: 1.3%
20,CCOc1ccc(-c2nnn(CC(=O)NCc3ccc4c(c3)OCO4)n2)cc1,inactive: 4%
21,O=C(O)C1CC(=O)n2c(nc3ccccc32)S1 (centres undefined),inactive: 2.4%
22,Cn1c(N)c(C(=O)COC(=O)c2ccco2)c(=O)n(C)c1=O,inactive: 0.8%
23,O=C(COC(=O)c1ccco1)Nc1ccc2c(c1)OCCO2,inactive: 2.2%
24,COc1ccc2c(Cl)c(C(=O)NCCCn3ccnc3)sc2c1Cl,inactive: 0.4%
25,Cc1ccc(-c2nc(-c3ccccc3)no2)cc1,inactive: 3.2%

row,SMILES,inhibition
1,O=C(CCN1CCCC1)Nc1cccc(Br)c1,inactive: -0.1%
2,C[N+]1(CCOc2ccc([N+](=O)[O-])cc2)CCOCC1,inactive: -1.2%
3,Cc1ccc(O)c(NC(=O)CCC2CCCCC2)c1,inactive: -2.6%
4,CC1Cc2ccccc2N1S(=O)(=O)c1cccc(C(=O)NCCCO)c1 (centres undefined),inactive: -1.2%
5,O=C(CN1C(=O)C2C3C=CC(C3)C2C1=O)Nc1nc2ccccc2[nH]1 (centres undefined),inactive: 4.5%
6,CCc1nc(-c2ccc(C)nc2OC)no1,inactive: 0.4%
7,COc1cccc(CNC(=O)C2CCN(Cc3cnn(-c4ccccc4)c3-n3cccc3)CC2)c1,inactive: -1.9%
8,CCOC(=O)N1CCN(c2ncnc3c2cnn3-c2ccc(OC)cc2)CC1,inactive: -3.2%
9,Clc1ccc(Sc2cnc3ccccc3n2)cc1,inactive: 11.7%
10,O=[N+]([O-])c1ccc(Cl)cc1Sc1cccc2cccnc12,inactive: 3.9%
11,COC(=O)[C@H](Cc1ccccc1)NC(=O)N1CC(C)OC(C)C1 (some centres undefined),inactive: -1.3%
12,O=[N+]([O-])c1cc(S(=O)(=O)Nc2cccc(C(F)(F)F)c2)ccc1-n1nnc2ccccc21,inactive: 2.7%
13,N#CC(c1ccc(F)cc1)c1ccc(C(=O)c2ccccc2)cc1 (centres undefined),inactive: -0.3%
14,Cc1cc(C(=O)CSc2nnc(-c3ccc(F)cc3)o2)c(C)n1CC1COc2ccccc2O1 (centres undefined),inactive: -0.6%
15,CCN(CC)C(=O)C1CCCN(c2ccc([N+](=O)[O-])cc2/C=N/NC(=O)c2cccc(O)c2)C1 (centres undefined),inactive: -3.4%
16,Cc1cc(C)c(NC(=O)CN2CCOCCOCCOCCOCC2)c(C)c1,inactive: 2.5%
17,COc1ccc(-c2nc(C#N)c(NCCc3ccccc3)o2)cc1OC,inactive: 4.3%
18,Cc1ccc(Nc2nc(C)cc(C)c2C(N)=O)cc1,inactive: -1.3%
19,COC(=O)c1ccc(NC(=S)Nc2ccc3ccccc3c2)cc1,inactive: -0.9%
20,OCCSc1ncnc2c1oc1ccccc12,inactive: -1.3%
21,CCc1ccc2c(c1)c(N=NC1=NC(=O)CS1)c(O)n2CC,inactive: -0.4%
22,O=C(Nc1cc(C(F)(F)F)ccc1N1CCOCC1)c1cccnc1Cl,inactive: -2.8%
23,CC(=O)COc1ncn(-c2ccccc2)n1,inactive: 0.2%
24,COc1ccc(/C=N/NC(=O)c2nonc2C)cc1,inactive: -1%

# No new results follow: entries from further up.
row,SMILES,inhibition
1,O=C(CCN1CCCC1)Nc1cccc(Br)c1,inactive: -0.1%
2,C[N+]1(CCOc2ccc([N+](=O)[O-])cc2)CCOCC1,inactive: -1.2%
3,Cc1ccc(O)c(NC(=O)CCC2CCCCC2)c1,inactive: -2.6%
4,CC1Cc2ccccc2N1S(=O)(=O)c1cccc(C(=O)NCCCO)c1 (centres undefined),inactive: -1.2%
